According to publication PMC10669561:
Where two headings read alike, the source gives them in different places. Results are given in words; binding and its absence hold for the method and conditions named. In cells and extracts the contact can be indirect. Some results given as binding are weak or reduced against the parent protein; the word gives no strength.

Sequences of proteins named here, by UniProt entry; tags and fusion partners are left off.
UniProt Q96EB6: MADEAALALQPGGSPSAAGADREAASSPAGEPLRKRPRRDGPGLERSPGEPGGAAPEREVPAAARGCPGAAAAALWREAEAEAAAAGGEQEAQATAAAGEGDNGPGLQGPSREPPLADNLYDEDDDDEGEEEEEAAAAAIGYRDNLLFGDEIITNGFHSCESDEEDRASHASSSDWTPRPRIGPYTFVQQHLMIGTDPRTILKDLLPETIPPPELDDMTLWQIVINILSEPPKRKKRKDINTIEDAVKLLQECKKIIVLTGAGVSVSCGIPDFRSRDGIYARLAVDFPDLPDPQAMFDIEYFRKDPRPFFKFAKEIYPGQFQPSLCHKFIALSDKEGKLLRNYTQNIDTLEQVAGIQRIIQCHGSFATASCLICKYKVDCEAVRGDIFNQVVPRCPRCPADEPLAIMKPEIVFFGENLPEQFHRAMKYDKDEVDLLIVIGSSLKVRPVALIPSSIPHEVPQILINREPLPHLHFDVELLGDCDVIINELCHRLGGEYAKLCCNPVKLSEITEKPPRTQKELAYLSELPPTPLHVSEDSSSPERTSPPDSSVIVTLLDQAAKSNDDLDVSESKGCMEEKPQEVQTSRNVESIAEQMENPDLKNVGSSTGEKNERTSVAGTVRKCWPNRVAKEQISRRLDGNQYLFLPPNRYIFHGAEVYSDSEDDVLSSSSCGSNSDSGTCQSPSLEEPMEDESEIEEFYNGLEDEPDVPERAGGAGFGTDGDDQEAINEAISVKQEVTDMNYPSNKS
UniProt Q04206: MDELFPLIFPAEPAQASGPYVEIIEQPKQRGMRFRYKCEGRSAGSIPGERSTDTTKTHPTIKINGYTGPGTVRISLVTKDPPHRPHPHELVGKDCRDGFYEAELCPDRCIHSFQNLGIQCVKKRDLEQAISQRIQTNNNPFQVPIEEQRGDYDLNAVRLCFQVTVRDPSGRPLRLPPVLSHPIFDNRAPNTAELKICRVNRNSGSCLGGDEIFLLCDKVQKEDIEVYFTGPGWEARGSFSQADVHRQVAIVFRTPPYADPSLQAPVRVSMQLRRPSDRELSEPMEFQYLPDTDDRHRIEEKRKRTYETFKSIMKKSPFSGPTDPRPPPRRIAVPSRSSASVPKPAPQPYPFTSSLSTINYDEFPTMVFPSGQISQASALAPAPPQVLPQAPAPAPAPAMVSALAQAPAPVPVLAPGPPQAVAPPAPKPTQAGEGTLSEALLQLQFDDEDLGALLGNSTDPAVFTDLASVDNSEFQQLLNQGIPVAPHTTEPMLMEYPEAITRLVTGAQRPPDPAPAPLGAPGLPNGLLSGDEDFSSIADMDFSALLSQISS

T1: NOX4 (NADPH oxidase 4) (human (endogenous in HUVECs)) (UniProt Q9NPH5)
T1 sequence: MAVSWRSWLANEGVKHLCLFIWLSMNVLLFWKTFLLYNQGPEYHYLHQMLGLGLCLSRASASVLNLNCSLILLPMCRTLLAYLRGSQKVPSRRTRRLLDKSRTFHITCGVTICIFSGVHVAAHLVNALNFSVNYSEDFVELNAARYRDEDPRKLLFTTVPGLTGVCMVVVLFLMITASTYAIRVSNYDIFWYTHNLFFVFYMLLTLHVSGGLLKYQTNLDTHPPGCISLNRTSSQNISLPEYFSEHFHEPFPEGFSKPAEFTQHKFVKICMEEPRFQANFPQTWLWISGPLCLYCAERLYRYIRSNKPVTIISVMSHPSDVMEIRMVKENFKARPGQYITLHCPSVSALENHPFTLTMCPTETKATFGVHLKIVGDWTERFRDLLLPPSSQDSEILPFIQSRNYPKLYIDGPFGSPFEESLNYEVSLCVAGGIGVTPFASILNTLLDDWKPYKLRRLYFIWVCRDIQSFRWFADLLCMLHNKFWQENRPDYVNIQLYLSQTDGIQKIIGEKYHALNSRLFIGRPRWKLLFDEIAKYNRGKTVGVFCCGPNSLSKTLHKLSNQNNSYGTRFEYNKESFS


Tests used:
Assay in all cases: co-IP; endogenous proteins from HUVEC lysates; supernatant incubated overnight at 4 °C with SIRT1 or NOX4 antibody, Dynabeads Protein G, Western blotting; cells treated with echinacoside or resveratrol, control siRNA or SIRT1 siRNA
[1] = target: Sirtuin1 (SIRT1) (human (endogenous in HUVECs)) (UniProt Q96EB6)
[2] = target: Sirtuin1 (SIRT1) (human (endogenous in HUVECs)) (UniProt Q96EB6); remark: listed apart in the source
[3] = target: T1, NOX4 (NADPH oxidase 4) (human (endogenous in HUVECs))

| binding [1] | binding [2] | binding [3] | Molecule |
| --- | --- | --- | --- |
| binds | – | – | p65 (from UniProt Q04206 1-551) |
| – | binds | binds | p22 phox (protein, UniProt P13498 1-195) MGQIEWAMWANEQALASGLILITGGIVATAGRFTQWYFGAYSIVAGVFVCLLEYPRGKRKKGSTMERWGQKYMTAVVKLFGPFTRNYYVRAVLHLLLSVPAGFLLATILGTACLAIASGIYLLAAVRGEQWTPIEPKPRERPQIGGTIKQPPSNPPPRPPAEARKKPSEEEAAVAAGGPPGGPQVNPIPVTDEVV |
